The list shows a part of the results.
Tests used:
Experiment in all cases: log2 fold change, soluble protein after heating vs DMSO (PISA); higher = thermal stabilisation; K562 cells, 10 uM, 30 min; active = over 0.2 and 3.5 SD of the protein, either way, in both replicates (recomputed)
[1] = compound: NC(=O)Nc1cc(-c2cccc(F)c2)sc1C(=O)N[C@H]1CCCNC1
In short: (§1)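 K562 cells at 2×10^6 cells/mL were treated with 10 μM compound for 30 min. Aliquots were heated for 3 min across 48°C-58°C, pooled, and extracted in PBS with 0.5% NP-40 at 4°C; soluble protein was the supernatant after 21,000xg for 90 min. Soluble protein was quantified by TMTpro 16plex LC-MS/MS with channel sums equalised, and reported as log2 fold change in thermal stability against DMSO controls, with values from duplicates.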

The chains behind the UniProt entries cited, without tags or fusion partners. Where a name states a change or a piece, a line headed by the entry shows the natural chain unless it says otherwise.
UniProt Q86SX6: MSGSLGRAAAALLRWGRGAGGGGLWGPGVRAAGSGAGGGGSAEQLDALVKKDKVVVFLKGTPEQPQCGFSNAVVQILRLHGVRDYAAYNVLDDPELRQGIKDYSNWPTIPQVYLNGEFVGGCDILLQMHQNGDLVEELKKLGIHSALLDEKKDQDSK
UniProt Q86VQ1: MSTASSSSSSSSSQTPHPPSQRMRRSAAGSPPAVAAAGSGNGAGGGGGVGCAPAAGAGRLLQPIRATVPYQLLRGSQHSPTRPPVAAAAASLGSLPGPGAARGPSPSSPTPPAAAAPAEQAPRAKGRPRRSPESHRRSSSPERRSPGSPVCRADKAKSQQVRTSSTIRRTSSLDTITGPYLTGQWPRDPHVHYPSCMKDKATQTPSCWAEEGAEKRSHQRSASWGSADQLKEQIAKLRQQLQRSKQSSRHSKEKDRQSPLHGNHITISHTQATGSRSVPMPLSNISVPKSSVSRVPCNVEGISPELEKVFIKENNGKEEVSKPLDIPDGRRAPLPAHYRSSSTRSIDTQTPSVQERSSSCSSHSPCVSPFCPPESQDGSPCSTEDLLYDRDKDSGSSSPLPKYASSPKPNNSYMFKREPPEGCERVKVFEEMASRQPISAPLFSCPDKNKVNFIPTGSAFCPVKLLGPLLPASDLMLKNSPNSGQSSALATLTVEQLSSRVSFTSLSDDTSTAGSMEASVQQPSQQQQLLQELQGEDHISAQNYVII
UniProt Q9Y4H4: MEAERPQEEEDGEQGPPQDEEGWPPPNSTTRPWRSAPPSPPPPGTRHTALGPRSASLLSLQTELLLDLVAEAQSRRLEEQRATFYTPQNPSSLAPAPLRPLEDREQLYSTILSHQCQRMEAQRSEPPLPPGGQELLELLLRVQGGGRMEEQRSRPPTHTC
UniProt Q04760: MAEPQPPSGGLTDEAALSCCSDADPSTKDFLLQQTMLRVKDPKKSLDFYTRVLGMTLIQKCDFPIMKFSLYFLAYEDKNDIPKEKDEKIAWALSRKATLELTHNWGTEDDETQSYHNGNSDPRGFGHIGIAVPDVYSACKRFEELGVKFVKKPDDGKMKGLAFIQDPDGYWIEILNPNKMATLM
UniProt Q9HAV7: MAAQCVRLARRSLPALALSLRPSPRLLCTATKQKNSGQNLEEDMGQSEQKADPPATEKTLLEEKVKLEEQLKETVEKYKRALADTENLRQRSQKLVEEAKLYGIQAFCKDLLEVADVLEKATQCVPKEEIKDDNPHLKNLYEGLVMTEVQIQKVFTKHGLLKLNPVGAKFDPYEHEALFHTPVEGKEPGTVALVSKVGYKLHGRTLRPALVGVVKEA
UniProt O95249: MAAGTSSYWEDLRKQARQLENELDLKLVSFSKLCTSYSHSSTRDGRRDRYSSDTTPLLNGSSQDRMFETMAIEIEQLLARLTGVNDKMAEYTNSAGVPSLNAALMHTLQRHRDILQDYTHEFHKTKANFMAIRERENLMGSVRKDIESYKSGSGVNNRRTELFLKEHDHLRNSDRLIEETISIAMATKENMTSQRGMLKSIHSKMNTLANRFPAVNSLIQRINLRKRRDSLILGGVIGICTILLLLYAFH
UniProt Q9UBQ7: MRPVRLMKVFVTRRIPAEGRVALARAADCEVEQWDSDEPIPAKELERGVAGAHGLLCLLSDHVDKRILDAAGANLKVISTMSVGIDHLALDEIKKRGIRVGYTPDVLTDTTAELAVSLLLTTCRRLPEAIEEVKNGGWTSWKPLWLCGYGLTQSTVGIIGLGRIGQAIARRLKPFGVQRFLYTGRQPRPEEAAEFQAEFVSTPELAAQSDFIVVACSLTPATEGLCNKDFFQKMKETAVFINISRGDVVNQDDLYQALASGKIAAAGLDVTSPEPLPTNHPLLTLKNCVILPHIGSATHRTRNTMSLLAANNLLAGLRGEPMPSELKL
UniProt P13224: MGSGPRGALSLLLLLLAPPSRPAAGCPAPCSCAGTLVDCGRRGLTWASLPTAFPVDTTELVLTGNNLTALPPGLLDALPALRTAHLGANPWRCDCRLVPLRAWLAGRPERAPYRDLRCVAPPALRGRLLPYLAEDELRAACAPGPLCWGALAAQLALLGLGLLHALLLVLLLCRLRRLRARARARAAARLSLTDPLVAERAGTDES
UniProt P25098: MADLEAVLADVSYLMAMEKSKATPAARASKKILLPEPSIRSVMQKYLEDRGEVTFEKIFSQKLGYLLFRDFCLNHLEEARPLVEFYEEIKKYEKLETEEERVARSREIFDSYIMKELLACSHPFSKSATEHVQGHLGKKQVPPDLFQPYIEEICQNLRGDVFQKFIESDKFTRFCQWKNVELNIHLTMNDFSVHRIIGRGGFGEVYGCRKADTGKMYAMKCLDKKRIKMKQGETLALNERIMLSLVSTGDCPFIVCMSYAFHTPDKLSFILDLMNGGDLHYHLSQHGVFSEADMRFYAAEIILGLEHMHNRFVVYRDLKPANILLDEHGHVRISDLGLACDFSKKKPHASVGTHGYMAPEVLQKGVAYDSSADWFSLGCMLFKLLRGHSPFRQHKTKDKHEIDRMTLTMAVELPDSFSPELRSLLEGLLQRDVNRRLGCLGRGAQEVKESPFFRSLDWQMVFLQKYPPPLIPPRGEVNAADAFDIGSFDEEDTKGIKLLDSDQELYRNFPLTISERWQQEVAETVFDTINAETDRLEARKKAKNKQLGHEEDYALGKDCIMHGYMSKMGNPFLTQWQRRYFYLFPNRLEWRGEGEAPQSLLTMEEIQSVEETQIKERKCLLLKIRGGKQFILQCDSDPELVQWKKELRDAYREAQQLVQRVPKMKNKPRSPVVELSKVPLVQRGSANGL
UniProt Q9H4A6: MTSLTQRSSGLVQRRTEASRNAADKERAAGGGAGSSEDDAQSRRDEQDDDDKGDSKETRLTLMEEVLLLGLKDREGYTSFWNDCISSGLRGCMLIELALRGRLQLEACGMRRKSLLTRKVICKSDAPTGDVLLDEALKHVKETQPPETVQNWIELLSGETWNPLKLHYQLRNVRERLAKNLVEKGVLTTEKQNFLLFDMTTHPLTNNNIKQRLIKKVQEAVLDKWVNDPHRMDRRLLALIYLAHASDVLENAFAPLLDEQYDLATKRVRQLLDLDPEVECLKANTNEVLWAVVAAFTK
UniProt Q3T8J9: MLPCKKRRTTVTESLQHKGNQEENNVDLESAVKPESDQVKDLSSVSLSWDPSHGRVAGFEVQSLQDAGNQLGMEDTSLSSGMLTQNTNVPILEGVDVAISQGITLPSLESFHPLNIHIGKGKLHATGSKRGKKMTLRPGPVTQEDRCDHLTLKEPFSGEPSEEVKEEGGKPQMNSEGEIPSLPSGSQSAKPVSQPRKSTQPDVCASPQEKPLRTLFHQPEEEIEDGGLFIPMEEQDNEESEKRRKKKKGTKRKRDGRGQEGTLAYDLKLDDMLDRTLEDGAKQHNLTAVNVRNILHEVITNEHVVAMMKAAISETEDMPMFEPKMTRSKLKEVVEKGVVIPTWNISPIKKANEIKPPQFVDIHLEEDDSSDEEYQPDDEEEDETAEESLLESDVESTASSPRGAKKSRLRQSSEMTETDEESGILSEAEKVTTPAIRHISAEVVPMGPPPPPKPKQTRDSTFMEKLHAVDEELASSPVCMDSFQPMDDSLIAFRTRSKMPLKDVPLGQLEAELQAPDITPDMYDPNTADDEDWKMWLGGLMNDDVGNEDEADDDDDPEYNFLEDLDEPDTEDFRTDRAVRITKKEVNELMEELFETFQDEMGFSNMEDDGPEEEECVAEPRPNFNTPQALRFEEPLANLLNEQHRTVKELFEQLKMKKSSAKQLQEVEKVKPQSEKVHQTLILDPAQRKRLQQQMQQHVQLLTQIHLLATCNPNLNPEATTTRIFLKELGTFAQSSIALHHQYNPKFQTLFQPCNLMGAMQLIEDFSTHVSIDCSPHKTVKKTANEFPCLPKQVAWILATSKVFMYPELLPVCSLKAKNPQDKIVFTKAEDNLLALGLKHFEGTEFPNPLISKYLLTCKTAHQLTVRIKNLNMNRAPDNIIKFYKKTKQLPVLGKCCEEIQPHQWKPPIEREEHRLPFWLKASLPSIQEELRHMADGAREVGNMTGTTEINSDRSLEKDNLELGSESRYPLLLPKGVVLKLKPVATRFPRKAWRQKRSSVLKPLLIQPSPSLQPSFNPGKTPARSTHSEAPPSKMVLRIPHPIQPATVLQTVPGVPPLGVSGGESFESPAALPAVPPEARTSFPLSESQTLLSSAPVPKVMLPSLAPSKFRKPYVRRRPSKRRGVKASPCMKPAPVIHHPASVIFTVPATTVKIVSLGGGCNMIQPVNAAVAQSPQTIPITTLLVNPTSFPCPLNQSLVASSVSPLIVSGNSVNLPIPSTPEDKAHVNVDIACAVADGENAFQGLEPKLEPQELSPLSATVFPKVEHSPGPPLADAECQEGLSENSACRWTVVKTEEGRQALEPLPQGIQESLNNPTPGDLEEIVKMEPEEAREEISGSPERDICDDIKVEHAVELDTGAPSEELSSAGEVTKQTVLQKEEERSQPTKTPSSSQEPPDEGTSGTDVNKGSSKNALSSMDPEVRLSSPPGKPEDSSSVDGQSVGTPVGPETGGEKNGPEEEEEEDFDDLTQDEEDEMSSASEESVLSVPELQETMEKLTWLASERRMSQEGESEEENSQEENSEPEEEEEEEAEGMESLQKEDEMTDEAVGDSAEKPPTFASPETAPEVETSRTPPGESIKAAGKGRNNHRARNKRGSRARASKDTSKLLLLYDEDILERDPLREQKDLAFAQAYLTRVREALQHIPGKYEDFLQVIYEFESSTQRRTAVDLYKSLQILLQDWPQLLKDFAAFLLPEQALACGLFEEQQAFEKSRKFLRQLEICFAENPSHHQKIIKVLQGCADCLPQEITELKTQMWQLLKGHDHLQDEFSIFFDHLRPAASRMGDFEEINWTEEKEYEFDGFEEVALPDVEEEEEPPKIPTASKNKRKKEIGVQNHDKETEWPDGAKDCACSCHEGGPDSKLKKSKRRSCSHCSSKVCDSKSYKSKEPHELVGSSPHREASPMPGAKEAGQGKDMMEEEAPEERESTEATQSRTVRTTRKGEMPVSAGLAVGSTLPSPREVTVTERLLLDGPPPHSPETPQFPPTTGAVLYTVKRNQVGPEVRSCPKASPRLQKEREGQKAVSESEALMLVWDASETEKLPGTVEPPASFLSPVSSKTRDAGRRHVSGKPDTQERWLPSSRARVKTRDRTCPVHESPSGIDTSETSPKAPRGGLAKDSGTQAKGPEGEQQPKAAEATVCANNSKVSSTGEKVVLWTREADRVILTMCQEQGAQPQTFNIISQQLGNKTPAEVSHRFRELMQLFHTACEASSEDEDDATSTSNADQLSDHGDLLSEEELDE
UniProt P28799: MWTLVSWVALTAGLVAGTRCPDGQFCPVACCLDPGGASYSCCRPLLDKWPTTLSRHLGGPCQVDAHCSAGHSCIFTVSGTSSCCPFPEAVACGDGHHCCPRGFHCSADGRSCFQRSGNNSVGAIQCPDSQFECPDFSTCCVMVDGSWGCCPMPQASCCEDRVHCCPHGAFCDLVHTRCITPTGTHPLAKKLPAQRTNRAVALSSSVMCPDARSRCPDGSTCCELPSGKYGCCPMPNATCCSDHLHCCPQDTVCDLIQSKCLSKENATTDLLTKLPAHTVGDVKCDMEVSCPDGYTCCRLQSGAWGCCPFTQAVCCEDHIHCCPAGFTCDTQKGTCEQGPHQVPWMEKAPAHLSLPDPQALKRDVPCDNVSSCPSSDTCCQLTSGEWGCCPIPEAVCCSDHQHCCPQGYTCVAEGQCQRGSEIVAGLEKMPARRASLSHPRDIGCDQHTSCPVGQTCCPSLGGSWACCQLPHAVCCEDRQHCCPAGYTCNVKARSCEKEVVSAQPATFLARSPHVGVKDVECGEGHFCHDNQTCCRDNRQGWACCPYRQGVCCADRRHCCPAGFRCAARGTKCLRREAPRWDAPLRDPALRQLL
UniProt Q9NZD2: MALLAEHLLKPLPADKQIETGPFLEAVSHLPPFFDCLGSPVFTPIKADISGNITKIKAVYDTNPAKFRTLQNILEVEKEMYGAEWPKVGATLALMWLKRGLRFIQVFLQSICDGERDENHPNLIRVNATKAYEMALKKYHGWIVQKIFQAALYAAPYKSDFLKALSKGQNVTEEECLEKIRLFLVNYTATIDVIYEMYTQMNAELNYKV
UniProt Q9HCN6: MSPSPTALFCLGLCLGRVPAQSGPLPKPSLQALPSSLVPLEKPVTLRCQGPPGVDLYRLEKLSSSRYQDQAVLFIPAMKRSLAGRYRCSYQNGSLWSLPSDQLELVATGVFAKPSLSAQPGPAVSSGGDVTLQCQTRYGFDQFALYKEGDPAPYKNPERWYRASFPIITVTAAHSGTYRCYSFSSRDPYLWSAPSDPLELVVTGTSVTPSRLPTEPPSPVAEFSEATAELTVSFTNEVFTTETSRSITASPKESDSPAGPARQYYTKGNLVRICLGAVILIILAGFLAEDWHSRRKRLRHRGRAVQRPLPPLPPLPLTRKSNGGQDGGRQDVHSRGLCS

[2] = compound: NC(=O)c1cnc(N[C@@H]2CCCC[C@@H]2N)nc1Nc1cccc(-n2nccn2)c1
In short: as §1

[3] = compound: NC1(c2ccc(-c3nc4ccn5c(=O)[nH]nc5c4cc3-c3ccccc3)cc2)CCC1
In short: as §1

[4] = compound: NCC(=O)Nc1ccc(-n2nc(C(F)(F)F)cc2-c2ccc3c(ccc4ccccc43)c2)cc1
In short: as §1

[5] = compound: Nc1ccccc1NC(=O)c1ccc(CNC(=O)OCc2cccnc2)cc1 [entinostat]
In short: as §1

[6] = compound: O=C(CCCCCCNC(=O)c1cnc(N(c2ccccc2)c2ccccc2Cl)nc1)NO [citarinostat]
In short: as §1

[7] = compound: O=C(O)c1ccc2c(c1)nc(Nc1cccc(Cl)c1)c1ccncc12 [silmitasertib]
In short: as §1

[8] = compound: O=C1NC(=O)C(c2cnc3ccccn23)=C1c1cn2c3c(cc(F)cc13)CN(C(=O)N1CCCCC1)CC2
In short: as §1

[9] = compound: c1cc(OCCN2CCCCC2)cc(-c2n[nH]c3ccc(-c4nnc[nH]4)cc23)c1
In short: as §1

[10] = compound: O=C(CCCCCCC(=O)Nc1ccccc1)NO [vorinostat]
In short: as §1

Measured: log2 fold change

GLRX5 (UniProt Q86SX6)
inactive: [1] -0.05 | [2] 0.005 | [3] 0.042 | [4] 0.083 | [5] 0.015 | [6] -0.022 | [7] -0.03 | [8] -0.217 | [9] -0.018

GOPC (UniProt Q9HD26)
inactive: [1] -0.055 | [2] -0.011 | [3] 0.15 | [4] -0.002 | [5] -0.092 | [10] -0.038 | [7] 0.029 | [8] 0.265

GM2A (UniProt P17900)
inactive: [1] -0.002 | [2] 0.058 | [3] -0.035 | [4] -0.037 | [5] 0.023 | [10] -0.062 | [6] -0.15 | [7] 0.027 | [8] -0.037 | [9] 0.607

GLCCI1 (UniProt Q86VQ1)
inactive: [1] -0.12 | [2] 0.03 | [3] -0.024 | [4] 0.102 | [5] 0.056 | [10] 0.158 | [6] 0.002 | [7] -0.042 | [8] 0.01 | [9] -0.088

GPSM3 (UniProt Q9Y4H4)
inactive: [1] -0.028 | [2] 0.149 | [3] 0.099 | [4] 0.058 | [5] 0.078 | [6] 0.006 | [7] 0.152 | [9] -0.009

GPS1 isoform 7 (UniProt Q13098)
inactive: [1] -0.012 | [2] 0.01 | [3] -0.062 | [4] 0.033 | [5] 0.003 | [10] 0.002 | [6] 0.024 | [7] 0.008 | [8] -0.028 | [9] -0.009

GLO1 (UniProt Q04760)
inactive: [1] 0.04 | [2] 0.015 | [3] 0.014 | [4] 0.053 | [5] 0.015 | [10] -0.019 | [6] -0.002 | [7] -0.001 | [8] -0.038 | [9] 0.03

GNMT (UniProt Q14749)
inactive: [1] -0.03 | [2] 0.054 | [3] -0.102 | [4] -0.446 | [5] 0.045 | [10] 0.502 | [6] 0.032 | [7] -0.051 | [9] -0.068

GNB1 (UniProt P62873)
inactive: [1] -0.054 | [2] 0.09 | [3] 0.05 | [4] 0.019 | [5] -0.05 | [10] 0.045 | [6] 0.012 | [7] 0.015 | [8] 0.007 | [9] -0.004

GRPEL1 (UniProt Q9HAV7)
inactive: [1] -0.102 | [2] -0.053 | [3] -0.016 | [4] -0.052 | [5] 0.024 | [10] -0.017 | [6] 0.035 | [7] -0.016 | [8] -0.094 | [9] -0.007

GOSR1 (UniProt O95249)
inactive: [1] 0.015 | [2] -0.068 | [3] -0.075 | [4] -0.036 | [5] 0.016 | [10] -0.043 | [6] 0.034 | [7] 0.002 | [8] -0.031 | [9] -0.035

GRHPR (UniProt Q9UBQ7)
inactive: [1] -0.067 | [2] 0.076 | [3] -0.032 | [4] 0.039 | [5] -0.039 | [10] 0.03 | [6] -0.008 | [7] -0.014 | [8] -0.033 | [9] -0.026

GPRIN1 (UniProt Q7Z2K8)
inactive: [1] -0.048 | [2] 0.082 | [3] 0.056 | [4] 0.02 | [5] -0.047 | [10] 0.004 | [6] -0.067 | [7] -0.004 | [8] -0.026 | [9] 0.026

GPD1 (UniProt P21695)
inactive: [1] 0.067 | [2] 0 | [3] 0.059 | [4] -0.067 | [5] -0.068 | [10] -0.035 | [7] -0.16 | [8] -0.157

GOLGA2 (UniProt Q08379)
inactive: [1] 0.048 | [2] -0.068 | [3] 0.047 | [4] 0.046 | [5] 0.007 | [10] 0.076 | [6] 0.018 | [7] 0.151 | [8] 0.053 | [9] -0.071

GP1BB isoform 2 (UniProt P13224)
inactive: [1] -0.042 | [2] 0.005 | [3] -0.016 | [4] -0.005 | [5] -0.035 | [10] -0.03 | [6] -0.045 | [7] 0.017 | [8] 0.025 | [9] 0.101

GPR180 (UniProt Q86V85)
inactive: [1] 0.003 | [2] -0.214 | [3] -0.285 | [4] -0.076 | [5] 0.082 | [10] 0.027 | [7] -0.079 | [8] 0.016

GREB1 (UniProt Q4ZG55)
inactive: [1] 0.029 | [2] -0.103 | [4] -0.002 | [5] 0.012 | [8] 0.036

GOSR2 isoform 2 (UniProt O14653)
inactive: [1] 0.021 | [2] 0.089 | [3] -0.144 | [4] 0.055 | [5] -0.021 | [10] 0.087 | [6] -0.002 | [7] -0.011 | [9] 0.231

GPI (UniProt P06744)
inactive: [1] -0.009 | [2] -0.012 | [3] -0.013 | [4] 0.001 | [5] 0.004 | [10] -0.001 | [6] -0.01 | [7] -0.046 | [8] -0.054 | [9] 0.004

GRK2 (UniProt P25098)
inactive: [1] 0.137 | [2] -0.02 | [3] -0.084 | [4] -0.018 | [5] 0.016 | [10] 0.016 | [6] 0.03 | [7] 0.009 | [8] -0.022 | [9] -0.02

GOLGA4 isoform 5 (UniProt Q13439)
inactive: [1] -0.072 | [2] -0.108 | [3] -0.01 | [4] -0.085 | [5] 0.038 | [10] 0 | [6] -0.196 | [7] 0.121 | [8] -0.062 | [9] -0.172

GPR108 (UniProt Q9NPR9)
inactive: [1] -0.044 | [2] 0.032 | [3] -0.114 | [4] -0.074 | [5] -0.022 | [6] -0.004 | [7] 0.022 | [8] -0.02 | [9] -0.083

GNA11 (UniProt P29992)
inactive: [1] 0.027 | [2] 0.042 | [3] 0.029 | [4] -0.041 | [5] -0.08 | [10] -0.025 | [6] -0.068 | [7] 0.018 | [8] -0.012 | [9] 0

GOLPH3 (UniProt Q9H4A6)
inactive: [1] 0.041 | [2] -0.082 | [3] 0.009 | [4] 0 | [5] 0.022 | [10] 0.014 | [6] 0.071 | [7] -0.013 | [8] 0 | [9] -0.043

GON4L (UniProt Q3T8J9)
inactive: [1] -0.03 | [2] -0.076 | [3] 0.101 | [5] -0.039 | [6] 0.326 | [7] 0.094 | [8] -0.031 | [9] -0.118

GPATCH11 (UniProt Q8N954)
inactive: [1] -0.002 | [2] 0.013 | [3] 0.07 | [4] -0.012 | [5] -0.069 | [10] -0.022 | [6] 0.061 | [7] 0.043 | [8] -0.041 | [9] 0.019

GSK3A (UniProt P49840)
inactive: [1] -0.02 | [2] 0.014 | [3] -0.054 | [4] 0.051 | [5] -0.03 | [10] -0.053 | [6] 0.015 | [7] -0.004 | [9] 0.193
active: [8] 0.454

Retrieved one by one from above (2):
GPATCH11 (UniProt Q8N954)
inactive: [1] -0.002 | [2] 0.013 | [3] 0.07 | [4] -0.012 | [5] -0.069 | [10] -0.022 | [6] 0.061 | [7] 0.043 | [8] -0.041 | [9] 0.019

GSK3A (UniProt P49840)
inactive: [1] -0.02 | [2] 0.014 | [3] -0.054 | [4] 0.051 | [5] -0.03 | [10] -0.053 | [6] 0.015 | [7] -0.004 | [9] 0.193
active: [8] 0.454

(further entries)

GRN (UniProt P28799)
inactive: [1] 0.011 | [2] 0.027 | [3] 0.101 | [4] 0.013 | [5] -0.05 | [10] -0.057 | [7] -0.029 | [8] 0.002

GLTP (UniProt Q9NZD2)
inactive: [1] -0.162 | [2] 0.242 | [3] -0.03 | [4] 0.023 | [5] 0.033 | [10] -0.063 | [6] -0.174 | [7] -0.046 | [9] -0.081

GIT2 (UniProt Q14161)
inactive: [2] 0 | [3] -0.06 | [7] -0.018 | [8] 0.15

GP6 isoform 3 (UniProt Q9HCN6)
inactive: [3] -0.232 | [7] 0.238
